Laboratory results: PubChem BioAssay AID685 (PCMD, 2007)
The list shows a part of the results.

Assay: yeast growth toxicity, wild-type and mutant, primary screen, cytotoxicity control for eIF2B function restoration project, wild-type and eIF2Bepsilon R284H mutant, A595 (AID 685);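 note: 0% = untreated cell controls and 100% = YPD media blanks without cells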
Conditions: S. cerevisiae eIF2Bepsilon-R284H mutant growth, A595 turbidity, 16 h; stronger effect = higher value; screened at 25 µM (by protocol)
Outline: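 System – wild-type and eIF2Bepsilon-R284H mutant S. cerevisiae, screened separately · Measured by – absorbance at 595 nm (turbidity) · Timing – 16 h compound exposure during growth at 30 °C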

Row | SMILES | growth inhibition [%]
1 | O=C(OC1CN2CCC1CC2)c1cccc(Cl)c1 (stereo not given) | -23.8
2 | COC(=O)c1cc2c(s1)N=C(c1ccccc1)N(C)P2(=O)N1CCOCC1 (stereo not given) | 0
3 | O=P1(Nc2nc3ccc(Cl)cc3s2)COc2ccccc2O1 (stereo not given) | 14.8
4 | CN1CCCC(OC(=O)C(c2ccccc2)c2ccccc2)C1 (stereo not given) | -3.33
5 | COc1ccc(OP(C)(=O)Nc2ccccn2)cc1 (stereo not given) | 17.6
6 | COc1ccccc1OP(C)(=O)Nc1ccc(C)cc1C (stereo not given) | 17.4
7 | Cc1c2non([O-])c-2c(C)[n+](=O)[n+]1[O-] | -15.8
8 | Oc1ccccc1CNc1ccccn1 | 8.06
9 | Cc1c(NP(C)(=O)Oc2ccc(C(C)C)cc2)c(=O)n(-c2ccccc2)n1C (stereo not given) | -2.27
10 | O=[N+]([O-])c1cccc2n[nH]nc12 | 22.5
11 | CC1CCN(C(=O)Oc2c(Cl)cc(Cl)c3cccnc23)CC1 | -19.1
12 | CCOP(C)(=S)SCC(=O)NC(C)C(=O)O (stereo not given) | 15.8
13 | Cc1ccc(NP(C)(=O)Oc2ccccc2)c(C)c1 (stereo not given) | -19.1
14 | COc1ccccc1OP(C)(=O)Nc1ccc(C)cc1 (stereo not given) | -10.7
15 | O=C(OC1CN2CCC1CC2)C12CC3CC(CC(C3)C1)C2 (stereo not given) | 6.45
16 | Cc1cc(C)cc(OP(C)(=O)Nc2ccccn2)c1 (stereo not given) | 10
17 | O=P1(Nc2ccc(Br)cn2)COc2ccccc2OC1 | 18.5
18 | COc1ccccc1OP(C)(=O)Nc1c(C)cccc1C (stereo not given) | 22.7
19 | O=P1(Nc2ncccn2)COc2ccccc2OC1 | 7.41
20 | CC1(CBr)Cn2c(nc3ccccc3c2=O)S1 (stereo not given) | 0
